No constants are given. Whether binding was seen depends on the method and setting. Binding seen in cells or lysates may run through a third protein. A result given as binding can be weak or reduced; the word gives no strength.

Protein sequences, listed by entry. Tags and fused reporters are not part of them. Lines headed by an entry give the natural chain unless they say otherwise; changes in a name come on top.
UniProt O35303: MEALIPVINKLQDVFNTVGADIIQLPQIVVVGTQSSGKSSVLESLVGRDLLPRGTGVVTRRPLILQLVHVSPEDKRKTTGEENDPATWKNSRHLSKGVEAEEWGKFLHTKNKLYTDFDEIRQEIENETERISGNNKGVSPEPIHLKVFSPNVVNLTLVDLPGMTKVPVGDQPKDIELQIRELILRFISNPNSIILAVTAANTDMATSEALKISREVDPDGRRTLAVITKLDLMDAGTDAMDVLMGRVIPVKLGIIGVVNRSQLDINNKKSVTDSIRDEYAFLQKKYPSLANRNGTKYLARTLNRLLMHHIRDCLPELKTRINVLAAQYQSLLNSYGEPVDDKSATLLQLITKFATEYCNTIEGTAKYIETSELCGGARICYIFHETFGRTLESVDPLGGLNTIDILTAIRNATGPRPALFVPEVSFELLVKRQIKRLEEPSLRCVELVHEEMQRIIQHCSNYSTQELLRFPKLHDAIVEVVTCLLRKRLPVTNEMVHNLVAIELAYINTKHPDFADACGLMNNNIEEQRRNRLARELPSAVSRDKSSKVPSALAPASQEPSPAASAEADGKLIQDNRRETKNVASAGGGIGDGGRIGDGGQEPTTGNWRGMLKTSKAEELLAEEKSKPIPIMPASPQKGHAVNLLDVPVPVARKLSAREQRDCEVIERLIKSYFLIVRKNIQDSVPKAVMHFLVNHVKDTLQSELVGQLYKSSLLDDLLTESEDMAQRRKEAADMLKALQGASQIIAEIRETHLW
UniProt P28063: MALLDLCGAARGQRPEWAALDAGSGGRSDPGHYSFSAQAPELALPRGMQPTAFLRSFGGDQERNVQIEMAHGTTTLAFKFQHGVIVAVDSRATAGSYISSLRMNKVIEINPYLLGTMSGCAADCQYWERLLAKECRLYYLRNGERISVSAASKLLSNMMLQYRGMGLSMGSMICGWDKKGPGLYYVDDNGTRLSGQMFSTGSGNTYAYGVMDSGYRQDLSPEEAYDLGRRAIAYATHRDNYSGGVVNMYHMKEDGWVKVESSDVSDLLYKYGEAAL
UniProt P28062: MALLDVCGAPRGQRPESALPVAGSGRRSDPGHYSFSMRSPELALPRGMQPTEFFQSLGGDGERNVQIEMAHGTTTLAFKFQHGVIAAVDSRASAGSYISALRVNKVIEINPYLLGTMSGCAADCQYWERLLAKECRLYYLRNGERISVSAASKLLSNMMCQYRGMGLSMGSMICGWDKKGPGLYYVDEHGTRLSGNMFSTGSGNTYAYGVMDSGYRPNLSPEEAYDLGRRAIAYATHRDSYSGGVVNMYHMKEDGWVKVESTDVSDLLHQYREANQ
UniProt O00429: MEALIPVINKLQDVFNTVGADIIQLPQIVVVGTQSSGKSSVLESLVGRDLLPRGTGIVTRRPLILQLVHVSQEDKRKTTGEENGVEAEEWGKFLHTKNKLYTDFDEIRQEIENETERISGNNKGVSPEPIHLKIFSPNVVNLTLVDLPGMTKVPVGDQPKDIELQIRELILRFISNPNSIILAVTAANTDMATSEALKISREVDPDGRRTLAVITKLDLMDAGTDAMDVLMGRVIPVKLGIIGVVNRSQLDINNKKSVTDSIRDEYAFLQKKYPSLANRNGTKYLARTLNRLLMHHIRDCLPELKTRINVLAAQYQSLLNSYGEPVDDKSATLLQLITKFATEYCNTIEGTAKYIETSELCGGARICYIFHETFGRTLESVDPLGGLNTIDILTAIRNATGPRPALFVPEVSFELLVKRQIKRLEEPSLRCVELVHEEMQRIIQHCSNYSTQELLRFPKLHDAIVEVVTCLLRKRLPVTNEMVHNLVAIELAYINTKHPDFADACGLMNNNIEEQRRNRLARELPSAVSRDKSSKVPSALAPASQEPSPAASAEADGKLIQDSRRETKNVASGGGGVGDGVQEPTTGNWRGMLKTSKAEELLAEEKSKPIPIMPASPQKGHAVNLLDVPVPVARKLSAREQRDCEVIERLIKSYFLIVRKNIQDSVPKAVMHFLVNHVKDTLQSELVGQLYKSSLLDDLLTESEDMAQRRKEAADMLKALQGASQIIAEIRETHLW
UniProt P28064: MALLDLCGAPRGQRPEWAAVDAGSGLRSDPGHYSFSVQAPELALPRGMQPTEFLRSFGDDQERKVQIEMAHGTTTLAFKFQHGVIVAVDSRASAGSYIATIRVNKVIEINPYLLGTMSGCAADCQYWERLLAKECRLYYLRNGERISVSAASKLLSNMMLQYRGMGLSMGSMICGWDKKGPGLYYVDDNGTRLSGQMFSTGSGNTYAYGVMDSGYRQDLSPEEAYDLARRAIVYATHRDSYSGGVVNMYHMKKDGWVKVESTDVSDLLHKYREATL
UniProt Q8K1M6: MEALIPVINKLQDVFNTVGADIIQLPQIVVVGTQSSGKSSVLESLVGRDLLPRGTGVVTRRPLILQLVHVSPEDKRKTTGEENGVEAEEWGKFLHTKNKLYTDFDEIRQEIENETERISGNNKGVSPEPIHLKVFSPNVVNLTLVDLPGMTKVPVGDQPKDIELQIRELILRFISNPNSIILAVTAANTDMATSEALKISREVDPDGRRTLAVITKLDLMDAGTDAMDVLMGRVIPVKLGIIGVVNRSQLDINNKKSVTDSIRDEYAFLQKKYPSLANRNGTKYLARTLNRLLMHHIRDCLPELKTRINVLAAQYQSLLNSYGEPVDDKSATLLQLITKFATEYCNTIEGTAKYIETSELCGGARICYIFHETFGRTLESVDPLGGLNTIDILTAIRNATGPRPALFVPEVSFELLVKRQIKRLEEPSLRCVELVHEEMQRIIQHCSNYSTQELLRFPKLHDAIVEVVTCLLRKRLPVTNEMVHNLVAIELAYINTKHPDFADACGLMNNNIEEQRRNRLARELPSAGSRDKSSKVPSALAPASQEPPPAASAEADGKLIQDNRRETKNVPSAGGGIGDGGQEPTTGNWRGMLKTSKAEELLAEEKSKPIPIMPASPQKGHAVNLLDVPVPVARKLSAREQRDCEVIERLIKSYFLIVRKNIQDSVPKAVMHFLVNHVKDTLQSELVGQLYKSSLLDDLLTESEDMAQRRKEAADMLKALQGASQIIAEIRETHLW

In experiment [1] the target is dynamin-related protein 1 (Drp1), endogenous in neonatal rat cardiomyocytes (rat (endogenous in NRCMs)) (UniProt O35303). In words: co-IP; NRCM lysates, with or without MG132 (20 µM), under control or H/R condition; IP with anti-Drp1 antibody or IgG control; blot with anti-Drp1 and anti-Psmb8.
Experiment [2] deals with Psmb8 (immunoproteasome catalytic subunit β5i), endogenous in mouse heart (mouse (endogenous in heart tissue)) (UniProt P28063). In words: co-IP; mouse heart tissue lysates; IP with anti-Psmb8 antibody or IgG control; blot with anti-Drp1 and anti-Psmb8; lysis buffer 20 mM Tris-HCl pH 7.5, 150 mM NaCl, 0.1% SDS, 1% NP-40; 4 °C overnight.
Experiment [3] deals with Flag-tagged full-length Psmb8 (UniProt P28062). In words: co-IP; HEK293 cells co-transfected with Flag-Psmb8 and Myc-Drp1 (full length or deletion mutants); IP with anti-Flag; blot with anti-Myc or anti-Flag.
Experiment [4] concerns the target Myc-tagged full-length Drp1 (UniProt O00429). The experiment can be described thus: co-IP; HEK293 cells co-transfected with Flag-Psmb8 (or Flag-GFP-tagged Psmb8 mutants) and Myc-Drp1; IP with anti-Myc; blot with anti-Flag or anti-Myc.

As for “Psmb8 (immunoproteasome catalytic subunit β5i), endogenous in neonatal rat cardiomyocytes (from UniProt P28064)”, the binding result in experiment [1] is given as “binds”.
Take “dynamin-related protein 1 (Drp1), endogenous in mouse heart (from UniProt Q8K1M6 1-736)”: the binding entry in experiment [2] is listed as “binds”.
On to “Myc-tagged full-length Drp1 (from UniProt O00429 1-736)”, for which the binding result in experiment [3] is given as “binds”.
“Flag-tagged full-length Psmb8 (from UniProt P28062)”: in experiment [4], the binding result is listed as “binds”.

The values are drawn from publication PMC11549449.
